{
  "source": "patent US20230183798A1",
  "about": "“COMPOSITIONS AND METHODS FOR MODIFYING POLYMERASE-NUCLEIC ACID COMPLEXES” (Pacific Biosciences of California, Inc., priority 2020, published 2023)",
  "tested_on": "polymerase-nucleic acid complexes (ternary complexes)",
  "assay": "Stripping nucleotides from ternary complexes: crosstalk metrics after NSB wash in 2x2 examination sequencing",
  "assay_type": "biochemical",
  "settings": "other concentrations tested in addition to Table 1",
  "experimental": "Template nucleic acid strands synthesized in 12 PCR reactions were prepared, and then independently bound to beads. […] Beads harboring immobilized template strands were then attached to the inner surface of a flow cell. Sequencing was performed for 22 cycles, where each cycle included subroutines for (i) Extension: adding a reversibly terminated nucleotide to primers that were hybridized to the immobilized templates, (ii) Examination: forming and detecting stabilized ternary complexes on the reversibly terminated, immobilized primer-template hybrids, and (iii) Activation: cleaving the reversible terminator from the extended primers.\nThe Examination subroutine was performed in a 2×2 format as diagrammed in FIG. 1. […] The flow cell was then imaged via fluorescence microscopy to detect ternary complexes that contained a labeled nucleotide that was a cognate for the next correct nucleotide in each of the template nucleic acids. […]\nThe concentrations are provided as a percentage in weight of compound per total volume of NSB (w/v) or volume of compound per total volume of NSB (v/v). The concentration can also be expressed as a molar concentration and this can be helpful, for example, as a way to compare the amounts of each compound tested. […]\nThe effectiveness of each candidate compound was determined from the following crosstalk metrics. […]",
  "note": "Some entries share one result that the patent states for a list of compounds.",
  "data": [
    {"compound": "OCCCCCO", "note": "[1,5 pentanediol]", "values": [
      {"measurement": "Concentration range in NSB found effective", "result": "25-35%"}
    ]},
    {"compound": "O=S1(=O)CCCC1", "note": "[sulfolane]", "values": [
      {"measurement": "Concentration range in NSB found effective", "result": "25-35%"}
    ]}
  ]
}
